What all share (test): co-IP; COS-7 cells co-transfected, lysed 30 h after transfection in 20 mM tris-HCl pH 7.5, 150 mM NaCl, 1% TritonX-100; IP with pAbB3-B, anti-myc, anti-FLAG, anti-HA or anti-Rin and protein-A agarose at 4°C; washes with 500 mM NaCl, 0,1% TritonX-100; Western blot
In general terms: Immunoblotting shows a protein as a band on a membrane.

Sequences of proteins named here, by UniProt entry; tags and fusion partners are left off. Residues count along the entry.
UniProt O43157, residues 20-2135: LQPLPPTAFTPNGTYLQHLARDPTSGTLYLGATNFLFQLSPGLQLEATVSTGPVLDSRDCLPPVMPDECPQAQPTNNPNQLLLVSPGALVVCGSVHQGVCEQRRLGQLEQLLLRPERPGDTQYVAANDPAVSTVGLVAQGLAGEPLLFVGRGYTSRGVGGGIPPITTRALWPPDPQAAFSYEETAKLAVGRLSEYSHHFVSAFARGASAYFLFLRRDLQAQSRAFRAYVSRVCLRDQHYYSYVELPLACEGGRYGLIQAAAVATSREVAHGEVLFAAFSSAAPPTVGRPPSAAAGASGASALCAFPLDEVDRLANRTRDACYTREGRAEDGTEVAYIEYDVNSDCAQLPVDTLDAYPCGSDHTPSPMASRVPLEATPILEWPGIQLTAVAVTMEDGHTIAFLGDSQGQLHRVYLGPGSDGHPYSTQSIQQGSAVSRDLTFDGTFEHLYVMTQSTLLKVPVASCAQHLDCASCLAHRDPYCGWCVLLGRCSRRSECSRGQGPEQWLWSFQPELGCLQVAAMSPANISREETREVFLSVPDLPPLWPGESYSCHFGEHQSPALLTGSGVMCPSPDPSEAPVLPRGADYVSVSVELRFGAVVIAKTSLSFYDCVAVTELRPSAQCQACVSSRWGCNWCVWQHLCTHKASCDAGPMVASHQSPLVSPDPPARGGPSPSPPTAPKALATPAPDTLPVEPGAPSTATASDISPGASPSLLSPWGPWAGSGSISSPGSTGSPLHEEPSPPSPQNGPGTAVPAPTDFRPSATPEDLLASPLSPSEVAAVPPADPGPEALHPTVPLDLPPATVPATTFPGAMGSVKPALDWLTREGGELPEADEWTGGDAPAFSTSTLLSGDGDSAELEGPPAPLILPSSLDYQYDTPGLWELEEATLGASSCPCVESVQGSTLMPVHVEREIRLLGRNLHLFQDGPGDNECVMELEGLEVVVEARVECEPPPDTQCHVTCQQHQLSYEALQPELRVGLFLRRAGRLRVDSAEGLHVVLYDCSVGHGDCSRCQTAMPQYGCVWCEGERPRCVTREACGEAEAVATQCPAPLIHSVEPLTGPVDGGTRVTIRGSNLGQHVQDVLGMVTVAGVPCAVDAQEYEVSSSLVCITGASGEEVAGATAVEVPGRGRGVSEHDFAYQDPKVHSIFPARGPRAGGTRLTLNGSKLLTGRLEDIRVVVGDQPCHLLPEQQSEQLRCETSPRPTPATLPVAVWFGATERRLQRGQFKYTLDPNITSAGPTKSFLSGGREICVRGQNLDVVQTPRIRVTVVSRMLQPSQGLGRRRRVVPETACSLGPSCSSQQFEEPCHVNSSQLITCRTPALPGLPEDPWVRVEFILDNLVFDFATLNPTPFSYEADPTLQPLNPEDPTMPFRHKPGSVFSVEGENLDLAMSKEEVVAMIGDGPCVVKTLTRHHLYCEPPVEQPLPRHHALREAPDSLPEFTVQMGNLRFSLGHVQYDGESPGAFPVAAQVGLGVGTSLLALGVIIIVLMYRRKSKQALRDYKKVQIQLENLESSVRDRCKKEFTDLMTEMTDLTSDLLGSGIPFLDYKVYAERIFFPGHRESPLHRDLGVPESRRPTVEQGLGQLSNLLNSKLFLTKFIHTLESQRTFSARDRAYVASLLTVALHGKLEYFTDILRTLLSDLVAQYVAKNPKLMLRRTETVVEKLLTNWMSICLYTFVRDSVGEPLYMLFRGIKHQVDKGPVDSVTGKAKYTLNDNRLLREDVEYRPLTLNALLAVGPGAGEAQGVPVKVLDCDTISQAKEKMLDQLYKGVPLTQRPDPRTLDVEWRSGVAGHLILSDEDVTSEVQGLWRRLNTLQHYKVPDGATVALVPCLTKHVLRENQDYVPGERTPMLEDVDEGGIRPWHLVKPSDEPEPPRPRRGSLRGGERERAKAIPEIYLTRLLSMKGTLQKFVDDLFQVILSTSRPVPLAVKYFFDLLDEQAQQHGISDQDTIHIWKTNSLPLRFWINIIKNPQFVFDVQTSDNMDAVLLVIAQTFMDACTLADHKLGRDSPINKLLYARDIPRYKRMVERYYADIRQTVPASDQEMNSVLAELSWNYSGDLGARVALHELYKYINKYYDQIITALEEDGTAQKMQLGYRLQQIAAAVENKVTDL
UniProt Q9UIW2, residues 27-1896: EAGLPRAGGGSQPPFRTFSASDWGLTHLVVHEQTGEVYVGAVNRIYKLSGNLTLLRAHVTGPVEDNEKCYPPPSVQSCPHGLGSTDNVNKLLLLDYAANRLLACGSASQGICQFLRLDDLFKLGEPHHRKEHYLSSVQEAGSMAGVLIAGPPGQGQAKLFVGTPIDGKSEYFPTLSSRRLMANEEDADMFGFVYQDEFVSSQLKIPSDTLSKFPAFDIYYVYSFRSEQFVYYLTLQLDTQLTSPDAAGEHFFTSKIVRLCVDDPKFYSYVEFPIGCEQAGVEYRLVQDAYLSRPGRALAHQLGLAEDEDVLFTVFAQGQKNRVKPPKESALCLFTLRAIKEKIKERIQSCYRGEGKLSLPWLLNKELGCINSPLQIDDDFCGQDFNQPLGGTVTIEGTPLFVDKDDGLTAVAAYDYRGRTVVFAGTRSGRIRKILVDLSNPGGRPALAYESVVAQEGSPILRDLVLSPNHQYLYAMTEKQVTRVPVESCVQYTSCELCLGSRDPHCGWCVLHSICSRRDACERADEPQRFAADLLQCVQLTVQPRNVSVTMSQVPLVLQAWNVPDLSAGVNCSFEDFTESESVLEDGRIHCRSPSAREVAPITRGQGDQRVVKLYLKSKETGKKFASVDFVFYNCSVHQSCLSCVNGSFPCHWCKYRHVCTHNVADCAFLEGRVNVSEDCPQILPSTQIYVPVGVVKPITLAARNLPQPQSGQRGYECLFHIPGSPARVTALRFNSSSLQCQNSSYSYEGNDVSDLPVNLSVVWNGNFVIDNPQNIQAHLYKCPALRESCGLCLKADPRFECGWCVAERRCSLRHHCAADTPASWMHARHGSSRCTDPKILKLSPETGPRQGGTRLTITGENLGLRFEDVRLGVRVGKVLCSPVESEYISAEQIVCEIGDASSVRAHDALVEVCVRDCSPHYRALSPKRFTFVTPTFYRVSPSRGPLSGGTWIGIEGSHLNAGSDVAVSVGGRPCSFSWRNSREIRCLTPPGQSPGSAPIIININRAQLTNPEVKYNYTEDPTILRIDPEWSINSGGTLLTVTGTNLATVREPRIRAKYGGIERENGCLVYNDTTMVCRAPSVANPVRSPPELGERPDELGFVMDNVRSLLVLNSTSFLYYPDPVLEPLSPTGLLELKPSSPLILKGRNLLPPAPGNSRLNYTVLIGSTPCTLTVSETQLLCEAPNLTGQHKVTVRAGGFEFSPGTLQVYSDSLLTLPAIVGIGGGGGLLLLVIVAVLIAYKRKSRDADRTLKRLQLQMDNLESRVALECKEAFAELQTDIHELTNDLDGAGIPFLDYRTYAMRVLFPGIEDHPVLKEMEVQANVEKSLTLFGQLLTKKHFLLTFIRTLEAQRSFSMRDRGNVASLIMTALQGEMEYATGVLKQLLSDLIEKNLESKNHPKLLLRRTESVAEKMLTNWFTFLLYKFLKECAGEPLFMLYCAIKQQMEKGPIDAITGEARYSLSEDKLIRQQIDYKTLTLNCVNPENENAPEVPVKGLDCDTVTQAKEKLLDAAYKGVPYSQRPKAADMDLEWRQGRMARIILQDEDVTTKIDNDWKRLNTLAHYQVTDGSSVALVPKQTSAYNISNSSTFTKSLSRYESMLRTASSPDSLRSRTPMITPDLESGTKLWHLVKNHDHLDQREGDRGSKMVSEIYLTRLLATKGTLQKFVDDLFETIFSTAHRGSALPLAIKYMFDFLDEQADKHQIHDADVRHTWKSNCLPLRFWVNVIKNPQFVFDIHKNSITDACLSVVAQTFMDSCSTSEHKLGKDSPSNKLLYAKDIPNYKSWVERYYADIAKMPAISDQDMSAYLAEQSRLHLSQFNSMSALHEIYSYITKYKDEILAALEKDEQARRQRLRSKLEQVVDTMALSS
UniProt O15031, residues 20-1838: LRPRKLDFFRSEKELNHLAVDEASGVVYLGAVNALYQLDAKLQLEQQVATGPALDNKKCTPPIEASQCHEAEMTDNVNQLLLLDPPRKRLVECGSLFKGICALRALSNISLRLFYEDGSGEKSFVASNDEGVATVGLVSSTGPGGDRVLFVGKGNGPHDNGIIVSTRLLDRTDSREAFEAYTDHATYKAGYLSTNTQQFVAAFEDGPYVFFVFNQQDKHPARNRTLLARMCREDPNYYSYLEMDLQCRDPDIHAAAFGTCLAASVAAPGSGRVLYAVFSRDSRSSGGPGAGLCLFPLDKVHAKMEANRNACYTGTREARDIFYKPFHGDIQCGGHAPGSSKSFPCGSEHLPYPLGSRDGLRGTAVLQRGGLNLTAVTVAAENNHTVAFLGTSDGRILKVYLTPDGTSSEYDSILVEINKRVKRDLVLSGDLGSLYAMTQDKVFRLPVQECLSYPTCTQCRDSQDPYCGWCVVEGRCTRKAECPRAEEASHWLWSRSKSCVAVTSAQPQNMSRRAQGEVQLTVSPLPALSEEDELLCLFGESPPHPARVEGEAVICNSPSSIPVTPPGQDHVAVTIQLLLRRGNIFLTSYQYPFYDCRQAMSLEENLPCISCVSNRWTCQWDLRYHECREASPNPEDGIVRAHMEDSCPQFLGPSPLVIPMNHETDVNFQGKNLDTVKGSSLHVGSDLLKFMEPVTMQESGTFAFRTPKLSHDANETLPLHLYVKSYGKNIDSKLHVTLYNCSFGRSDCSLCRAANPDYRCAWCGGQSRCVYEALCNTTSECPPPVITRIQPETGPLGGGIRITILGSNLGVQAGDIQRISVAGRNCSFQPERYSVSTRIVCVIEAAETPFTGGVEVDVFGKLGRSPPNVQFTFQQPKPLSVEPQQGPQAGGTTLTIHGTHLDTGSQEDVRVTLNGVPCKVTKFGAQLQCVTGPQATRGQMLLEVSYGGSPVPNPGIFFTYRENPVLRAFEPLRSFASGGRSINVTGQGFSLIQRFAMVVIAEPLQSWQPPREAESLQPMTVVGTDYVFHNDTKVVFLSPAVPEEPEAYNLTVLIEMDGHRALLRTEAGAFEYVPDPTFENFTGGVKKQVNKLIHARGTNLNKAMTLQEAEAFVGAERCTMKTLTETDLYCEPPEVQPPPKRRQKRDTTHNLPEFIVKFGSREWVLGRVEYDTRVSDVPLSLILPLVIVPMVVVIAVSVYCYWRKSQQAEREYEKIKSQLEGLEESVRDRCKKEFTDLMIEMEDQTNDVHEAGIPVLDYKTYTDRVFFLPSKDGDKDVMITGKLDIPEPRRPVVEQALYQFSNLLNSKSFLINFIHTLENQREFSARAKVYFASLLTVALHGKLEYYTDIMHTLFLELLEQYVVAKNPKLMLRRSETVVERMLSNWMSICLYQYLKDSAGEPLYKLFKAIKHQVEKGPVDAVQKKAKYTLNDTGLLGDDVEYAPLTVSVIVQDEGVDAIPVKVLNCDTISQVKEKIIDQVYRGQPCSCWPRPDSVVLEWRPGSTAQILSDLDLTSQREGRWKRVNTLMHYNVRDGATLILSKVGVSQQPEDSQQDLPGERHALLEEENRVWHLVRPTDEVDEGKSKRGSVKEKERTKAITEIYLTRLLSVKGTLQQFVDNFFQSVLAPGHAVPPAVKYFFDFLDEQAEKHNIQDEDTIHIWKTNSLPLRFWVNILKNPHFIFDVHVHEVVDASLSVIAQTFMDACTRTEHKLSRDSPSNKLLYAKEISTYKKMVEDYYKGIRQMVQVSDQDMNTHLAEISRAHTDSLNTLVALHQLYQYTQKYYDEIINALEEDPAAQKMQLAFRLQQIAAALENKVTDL

The target in assay [1] is myc-tagged full-length human plexin B3 (pSecTag2B/B3) (human) (UniProt Q9ULL4).
Assay [2] has as its target T1, FLAG-tagged full-length human Rin (pFLAG/Rin) (human) (UniProt Q99578).
T1 sequence: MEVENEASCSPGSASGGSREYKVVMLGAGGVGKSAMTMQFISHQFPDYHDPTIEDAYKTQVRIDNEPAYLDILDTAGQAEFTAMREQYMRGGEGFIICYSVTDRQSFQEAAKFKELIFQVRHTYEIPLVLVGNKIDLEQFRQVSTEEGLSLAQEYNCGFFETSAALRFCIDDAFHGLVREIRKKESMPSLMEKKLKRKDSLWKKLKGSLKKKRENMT

The target in assay [3] is non-tagged full-length human plexin B3 (pIRES/B3) (human) (UniProt Q9ULL4).

Results are given in words; binding and its absence hold for the method and conditions named. Binding seen in cells or lysates may run through a third protein. Some results given as binding are weak or reduced against the parent protein; the word gives no strength. For some of these results: Tags and fused reporters may be left off the sequences shown.

As for “EGFP-tagged full-length human plexin B3 (pEGFP-N1/B3) (from UniProt Q9ULL4 45-1909) (receptor)”, the binding result in assay [1] is recorded as “binds”.
With “non-tagged full-length human plexin B3 (pIRES/B3) (from UniProt Q9ULL4 45-1909) (receptor)”, the binding entry in assay [2] is listed as “binds”.
For “VSV-tagged full-length human plexin B1 (pcDNAVSV/B1) (from UniProt O43157 20-2135) (receptor)”, in assay [3], the binding entry is on record as “no binding”.
For “VSV-tagged full-length human plexin A1 (pcDNAVSV/A1) (from UniProt Q9UIW2 27-1896) (receptor)”, the binding result in assay [3] is “no binding”.
With “FLAG-tagged full-length human plexin B2 (pFLAG/B2) (from UniProt O15031 20-1838) (receptor)”, the binding entry in assay [2] and in assay [3] was “no binding” in each case.

B1: B3Δic FLAG (pFLAG/B3Δic), human plexin B3 lacking the intracellular part (domain or fragment, UniProt Q9ULL4 45-1327)
chain: HRFSAPNTTLNHLALAPGRGTLYVGAVNRLFQLSPELQLEAVAVTGPVIDSPDCVPFRDPAECPQAQLTDNANQLLLVSSRAQELVACGQVRQGVCETRRLGDVAEVLYQAEDPGDGQFVAANTPGVATVGLVVPLPGRDLLLVARGLAGKLSAGVPPLAIRQLAGSQPFSSEGLGRLVVGDFSDYNNSYVGAFADARSAYFVFRRRGARAQAEYRSYVARVCLGDTNLYSYVEVPLACQGQGLIQAAFLAPGTLLGVFAAGPRGTQAALCAFPMVELGASMEQARRLCYTAGGRGPSGAEEATVEYGVTSRCVTLPLDSPESYPCGDEHTPSPIAGRQPLEVQPLLKLGQPVSAVAALQADGHMIAFLGDTQGQLYKVFLHGSQGQVYHSQQVGPPGSAISPDLLLDSSGSHLYVLTAHQVDRIPVAACPQFPDCASCLQAQDPLCGWCVLQGRCTRKGQCGRAGQLNQWLWSYEEDSHCLHIQSLLPGHHPRQEQGQVTLSVPRLPILDADEYFHCAFGDYDSLAHVEGPHVACVTPPQDQVPLNPPGTDHVTVPLALMFEDVTVAATNFSFYDCSAVQALEAAAPCRACVGSIWRCHWCPQSSHCVYGEHCPEGERTIYSAQEVDIQVRGPGACPQVEGLAGPHLVPVGWESHLALRVRNLQHFRGLPASFHCWLELPGELRGLPATLEETAGDSGLIHCQAHQFYPSMSQRELPVPIYVTQGEAQRLDNTHALYVILYDCAMGHPDCSHCQAANRSLGCLWCADGQPACRYGPLCPPGAVELLCPAPSIDAVEPLTGPPEGGLALTILGSNLGRAFADVQYAVSVASRPCNPEPSLYRTSARIVCVTSPAPNGTTGPVRVAIKSQPPGISSQHFTYQDPVLLSLSPRWGPQAGGTQLTIRGQHLQTGGNTSAFVGGQPCPILEPVCPEAIVCRTRPQAAPGEAAVLVVFGHAQRTLLASPFRYTANPQLVAAEPSASFRGGGRLIRVRGTGLDVVQRPLLSVWLEADAEVQASRAQPQDPQPRRSCGAPAADPQACIQLGGGLLQCSTVCSVNSSSLLLCRSPAVPDRAHPQRVFFTLDNVQVDFASASGGQGFLYQPNPRLAPLSREGPARPYRLKPGHVLDVEGEGLNLGISKEEVRVHIGRGECLVKTLTRTHLYCEPPAHAPQPANGSGLPQFVVQMGNVQLALGPVQYEAEPPLSAFPVEAQAGVGMGAAVLIAAVLLLTLMYRHKSKQALRDYQKVLVQLESLETGVGDQCRKEFTDLMTEMTDLSSDLEGSG
As for B1, the binding entry in assay [1] was “binds”.

For the origin of these results see article PMC1215486.
